The results in this text go back to article PMC8666589.

Chains of the proteins cited; added tags and fusions are not shown. Lines headed by an entry give the natural chain unless they say otherwise; changes in a name come on top. Residues count along the entry.
UniProt Q9NZQ7, residues 19-134: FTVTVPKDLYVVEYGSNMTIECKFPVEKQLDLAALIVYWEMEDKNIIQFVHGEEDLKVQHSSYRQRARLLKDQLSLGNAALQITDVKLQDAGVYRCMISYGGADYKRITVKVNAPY
UniProt P09012: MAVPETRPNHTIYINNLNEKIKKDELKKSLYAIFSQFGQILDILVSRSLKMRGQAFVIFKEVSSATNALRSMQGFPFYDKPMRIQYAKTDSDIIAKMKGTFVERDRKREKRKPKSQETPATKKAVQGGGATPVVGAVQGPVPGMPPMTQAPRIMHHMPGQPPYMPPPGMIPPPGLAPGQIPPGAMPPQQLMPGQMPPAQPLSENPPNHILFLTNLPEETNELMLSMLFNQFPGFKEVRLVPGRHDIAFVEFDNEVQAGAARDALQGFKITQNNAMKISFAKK

Results are given in words; binding and its absence hold for the method and conditions named. Some binding calls cover weakened binding; strength is not graded here.

This experiment concerns the target PD-L1 (human) (UniProt Q9NZQ7). The experiment can be described thus: ELISA; binding ELISA of rU1 snRNPA or variants on PD-L1; curve fitting with GraphPad Prism 8.0; done in double; details in the supplementary materials (not shown); both purified.

As to “rU1 snRNPA variant I33F (from UniProt P09012 1-282)”, the binding entry is given as “binds”. Then “rU1 snRNPA variant Q36R (from UniProt P09012 1-282)”, with “binds”.
